± gives the standard deviation of the averaged measurements. Most entries show no effect beyond the scatter of the controls.
Tests used:
Test in all cases: level (log10 ratio to DMSO vehicle control); higher = higher biomarker level / cell amount than vehicle control
[1] = compound: C=CC(=O)OCC(F)(F)C(F)(F)C(F)(F)COC(=O)C=C [1H,1H,5H,5H-Perfluoro-1,5-pentanediol diacrylate]; settings: 2200 nM; in DMSO
Description: (§1)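 BioMAP Diversity Plus panel of 12 human primary cell co-culture systems (3C, 4H, LPS, SAg, BT, BF4T, BE3C, CASM3C, HDF3CGF, KF3CT, MyoF, Mphg). Compounds were added 1 h before stimulation and left for 24 h (MyoF 48 h; BT 72 h for soluble read-outs or 6 d for IgG). Biomarkers were read by ELISA, cytotoxicity by SRB, PBMC viability and proliferation by Alamar Blue. Each well value was divided by the mean of 8 DMSO control wells on the same plate and log10 transformed; duplicate blinded samples were tested at 4 concentrations.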

[2] = compound: C=CC(=O)OCCC(F)(F)C(F)(F)C(F)(F)C(F)(F)C(F)(F)C(F)(F)C(F)(F)C(F)(F)F [8:2 Fluorotelomer acrylate]; settings: 2200 nM; in DMSO
Description: as §1

[3] = compound: C=CC(=O)OCCC(F)(F)C(F)(F)C(F)(F)C(F)(F)F [2-(Perfluorobutyl)ethyl acrylate]; settings: 2200 nM; in DMSO
Description: as §1

[4] = compound: FC(F)(F)C(F)(C(F)(F)F)C(F)(F)C(F)(F)CC1CO1 [3-(Perfluoro-3-methylbutyl)-1,2-propenoxide]; settings: in DMSO
Description: as §1

Perfluoro-1-iodohexane = compound: FC(F)(F)C(F)(F)C(F)(F)C(F)(F)C(F)(F)C(F)(F)I [Perfluoro-1-iodohexane]; settings: in DMSO
Description: as §1

[5] = compound: FC(F)(I)C(F)(F)C(F)(F)C(F)(F)C(F)(F)C(F)(F)I [1,6-Diiodoperfluorohexane]; settings: 2200 nM; in DMSO
Description: as §1

[6] = compound: O=C(Cl)C(F)(F)C(F)(F)C(F)(F)C(=O)Cl [Hexafluoroglutaryl chloride]; settings: 2200 nM; in DMSO
Description: as §1

[7] = compound: O=C(O)C(F)(F)C(F)(F)C(F)(F)C(F)(F)C(F)(F)C(F)(F)C(F)(F)C(F)(F)C(F)(F)C(F)(F)C(F)(F)C(F)(F)C(F)(F)F [Perfluorotetradecanoic acid]; settings: in DMSO
Description: as §1

[8] = compound: O=C(O)C=C(C(F)(F)F)C(F)(F)F [3,3-Bis(trifluoromethyl)-2-propenoic acid]; settings: in DMSO
Description: as §1

[9] = compound: O=S(=O)(O)C(F)(F)C(F)(F)C(F)(F)C(F)(F)C(F)(F)C(F)(F)F [Perfluorohexanesulfonic acid]; settings: 2200 nM; in DMSO
Description: as §1

[10] = compound: O=S(=O)(O)CCC(F)(F)C(F)(F)C(F)(F)C(F)(F)F [4:2 Fluorotelomer sulfonic acid]; settings: 2200 nM; in DMSO
Description: as §1

Hexafluoroamylene glycol = compound: OCC(F)(F)C(F)(F)C(F)(F)CO [Hexafluoroamylene glycol]; settings: 2200 nM; in DMSO
Description: as §1

[11] = compound: OCCCC(F)(F)C(F)(F)C(F)(F)C(F)(F)C(F)(F)C(F)(F)C(F)(F)F [7:3 Fluorotelomer alcohol]; settings: 2200 nM; in DMSO
Description: as §1

Test System | level (log10) [1] | level (log10) [2] | level (log10) [3] | level (log10) ([4]; 740 nM) | level (log10) ([4]; 2200 nM) | level (log10) (Perfluoro-1-iodohexane; 2200 nM) | level (log10) (Perfluoro-1-iodohexane; 6700 nM) | level (log10) (Perfluoro-1-iodohexane; 20000 nM) | level (log10) (Perfluoro-1-iodohexane; 60000 nM) | level (log10) [5] | level (log10) [6] | level (log10) ([7]; 740 nM) | level (log10) ([7]; 2200 nM) | level (log10) ([8]; 2200 nM) | level (log10) ([8]; 6700 nM) | level (log10) ([8]; 20000 nM) | level (log10) ([8]; 60000 nM) | level (log10) [9] | level (log10) [10] | level (log10) (Hexafluoroamylene glycol) | level (log10) [11]
LPS:CD40 | -0.087 ± 0.02 | 0.039 ± 0.021 | -0.004 ± 0.051 | -0.0165 ± 0.022 | -0.0325 ± 0.046 | 0.0575 ± 0.013 | 0.058 ± 0.0014 | 0.0375 ± 0.005 | -0.0135 ± 0.061 | -0.004 ± 0.04 | -0.0305 ± 0.023 | 0.0535 ± 0.12 | 0.0215 ± 0.11 | -0.033 ± 0.0057 | -0.055 ± 0.024 | -0.061 ± 0.047 | -0.184 | 0.0125 ± 0.013 | 0.0075 ± 0.067 | 0.05 ± 0.017 | 0.0475 ± 0.0064
BF4T:CCL26/Eotaxin-3 | 0.0135 ± 0.071 | 0.0195 ± 0.042 | 0.0225 ± 0.036 | 0.0155 ± 0.077 | -0.004 ± 0.042 | 0.022 ± 0.011 | 0.0255 ± 0.0035 | 0.0135 ± 0.015 | -0.0145 ± 0.059 | -0.015 | 0.0075 ± 0.022 | 0.022 ± 0.069 | -0.044 ± 0.044 | -0.0435 ± 0.059 | -0.089 ± 0.03 | -0.124 ± 0.0014 | -0.126 ± 0.067 | 0.0305 ± 0.037 | 0.0005 ± 0.096 | 0.0515 ± 0.09 | 0.037 ± 0.0057
MyoF:alpha-SM Actin | -0.0195 ± 0.0021 | 0.02 ± 0.083 | -0.0015 ± 0.0021 | 0.0025 ± 0.033 | -0.0095 ± 0.022 | 0 ± 0.055 | -0.073 ± 0.021 | -0.173 ± 0.086 | -0.38 ± 0.0092 | -0.114 ± 0.027 | 0.037 ± 0.017 | 0.01 ± 0.069 | 0.02 ± 0.017 | 0.005 ± 0.055 | -0.003 ± 0.054 | -0.01 ± 0.067 | -0.0795 ± 0.044 | 0.0055 ± 0.0078 | -0.008 ± 0.042 | -0.0125 ± 0.073 | 0.0295 ± 0.022
BE3C:HLA-DR | 0.006 ± 0.018 | 0.017 ± 0.023 | -0.004 ± 0.024 | -0.01 ± 0.023 | -0.007 ± 0.0071 | 0 ± 0.0099 | -0.003 ± 0.0028 | 0.003 ± 0.0057 | -0.009 ± 0.0028 | 0.024 ± 0.018 | -0.001 ± 0.0028 | 0.014 ± 0.0099 | -0.0095 ± 0.021 | -0.004 ± 0.031 | -0.0175 ± 0.0064 | -0.0245 ± 0.011 | -0.0355 ± 0.016 | -0.0005 ± 0.033 | -0.017 ± 0.027 | -0.027 ± 0.021 | -0.0035 ± 0.032
3C:CD54/ICAM-1 | 0.0005 ± 0.0035 | -0.0135 ± 0.05 | 0.004 ± 0.023 | -0.004 ± 0.016 | -0.009 ± 0.013 | 0.014 ± 0.028 | 0 ± 0.0057 | 0.0025 ± 0.0078 | 0.012 ± 0.0014 | 0.014 ± 0.034 | 0.012 ± 0.0071 | 0.013 ± 0.0028 | 0.003 ± 0.0014 | 0.002 ± 0.011 | -0.002 ± 0.0071 | -0.018 ± 0.0071 | -0.0095 ± 0.018 | -0.01 ± 0.018 | 0.013 ± 0.0028 | -0.0065 ± 0.012 | 0.0075 ± 0.015
KF3CT:TIMP-2 | 0.009 ± 0.013 | -0.005 ± 0.037 | -0.0045 ± 0.056 | -0.0095 ± 0.0035 | -0.0025 ± 0.022 | -0.006 ± 0.0028 | 0.0015 ± 0.013 | 0.0135 ± 0.019 | 0.0035 ± 0.011 | -0.006 ± 0.035 | 0.0005 ± 0.013 | -0.023 ± 0.038 | 0.017 ± 0.0071 | 0.0065 ± 0.032 | 0.006 ± 0.048 | -0.016 ± 0.021 | 0.039 ± 0.052 | 0.012 ± 0.0085 | -0.025 ± 0.014 | -0.03 ± 0.0042 | -0.0085 ± 0.013
